We go through 99 compounds from the supplement of paper PMC11150407.

In all, about 3,000 compounds went through this assay and about 45 (2%) showed an effect of 50% or more. The list shows a part of the results.

This assay relates to MOLM1 and UCSD/AML1 (averaged). Description: cell viability relative to DMSO control (POC); higher = less growth inhibition. The note with it: 1 µM; 72 h. The protocol:
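Primary viability screen in the 3q26 EVI1-high AML cell lines MOLM1 and UCSD/AML1, compounds at 1 uM for 72 h. ATP CellTiter-Glo read-out given as percent viable over DMSO control (POC), averaged over duplicates. This mapping covers the TimTec NDL-3000 natural derivative library, whose compounds are identified by TimTec catalogue codes (ST...).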
Turning to `COC(=O)C1=C(C)NC2=C(C(=O)CC(c3ccccc3)C2)C1c1cc(Br)c(O)c(OC)c1` (centres undefined), the cell viability (usually a read-out of living cells in per cent, often relative to untreated cells) was found to be 107%.

`Cc1ccc2c(C)c(-c3ccc(Cl)cc3Cl)c(=O)oc2c1`: the cell viability was 87.2%.

In the case of `COc1ccc(-c2cc(=O)c3cc(C)cc(C)c3o2)cc1OC`, the cell viability stood at 106%.

As for `COc1ccc(CNC(=O)Cc2c(C)n(C(=O)c3ccc(Cl)cc3)c3ccc(OC)cc23)cc1`, the cell viability was 98.4%.

For the compound `CCOc1ccc(-c2nc(CSc3nc4c(=O)[nH]c(C)nc4n3C)c(C)o2)cc1`, the cell viability was found to be 107%.

For the compound `COC(=O)C1=C(C(=O)OC)SC2(S1)C(C(=O)OC)=C(C(=O)OC)SC1=C2c2cc(C)c(C)cc2N(C(=O)c2ccc3c(c2)OCO3)C1(C)C`, the cell viability came out at 90.2%.

On to `Cc1ccc(C(=O)Oc2ccc(/C=C3/Oc4ccc(Cl)cc4C3=O)cc2)cc1`, for which the cell viability was 102%.

Take `COc1cc(C(=O)NCC23CC4CC(CC(C4)C2)C3)cc(OC)c1OC`: the cell viability worked out at 94.8%.

Turning to `Nc1nc(N)c2nc(-c3ccccc3)c(N)nc2n1`, the cell viability came to 101%.

Regarding `C[N+]12CCCCC1C(CN1C(=O)c3ccccc3C1=O)CCC2` (centres undefined), the cell viability was found to be 96.4%.

With `COC(=O)COc1ccc(NC(=O)c2cc(OC)c(OC)c(OC)c2)cc1OC`, the cell viability amounted to 98.3%.

In the case of `COc1cc(C(=O)Nc2ccccc2C(=O)Nc2ccccc2)cc(OC)c1OC`, the cell viability is 36%.

Regarding `COC(=O)C1=C(N)Oc2c(oc(CO)cc2=O)C1c1c(Cl)cccc1Cl` (centres undefined), the cell viability came to 108%.

In the case of `O=C(CSc1nc2ccccc2c(=O)[nH]1)NCCc1nc2ccccc2[nH]1`, the cell viability amounted to 104%.

`CSc1ccc(Cl)c(C(=O)NCC2(C)CCCC3(C)c4cc(C(C)C)ccc4CCC23)c1` (centres undefined): the cell viability was 81.9%.

On to `COc1ccccc1C(=O)NCCc1c(C)[nH]c2ccc(OCc3ccccc3)cc12`, for which the cell viability was 86%.

Consider `Cc1cccc(C)c1NC(=O)C1(N(CCc2c[nH]c3ccccc23)C(=O)c2ccccc2Cl)CCCCC1`, for which the cell viability is 97.7%.

`COC(=O)c1ccc2c(c1)C(=O)/C(=C/c1ccc(OCC(C)C)c(OC)c1)O2`: the cell viability was found to be 109%.

Regarding `O=C(N[C@@H](CO)C(=O)OCc1ccccc1)OCc1ccccc1`, the cell viability stood at 92.2%.

As for `COc1ccc(/C=C/C(=O)c2ccc3c(c2)OCO3)cc1OC`, the cell viability is 94.4%.

Turning to `Cn1c(=O)c2[nH]c(I)nc2n(C)c1=O`, the cell viability turned out to be 95.4%.

`O=c1oc2cc(O)ccc2cc1-c1ccccc1Cl`: the cell viability came out at 102%.

Consider `CC(=O)NC(Cc1c[nH]c2ccccc12)C(=O)NCCc1ccccc1` (centres undefined), for which the cell viability stood at 105%.

With `O=C(Cn1c(=O)cc(C(=O)N2CCCCC2)c2ccccc21)Nc1ccc(F)cc1F`, the cell viability came to 105%.

Take `N#Cc1cc2c(N)c(C(=O)NCCc3c[nH]c4ccccc34)sc2nc1N`: the cell viability is 97.7%.

Regarding `COc1ccccc1NC(=O)CSc1nc2nc(C)cc(C)c2c(=O)[nH]1`, the cell viability worked out at 99.8%.

With `CCN(CC)C(=O)c1ccc(OCc2ccc3nsnc3c2)c(OC)c1`, the cell viability stood at 110%.

Regarding `COc1cc(C(=O)N2CCN(Cc3ccc(Cl)cc3)CC2)cc(OC)c1OC`, the cell viability was 88.6%.

With `Cc1ccc(C)c(-c2nc(CSc3nc4c(=O)[nH]cnc4n3C)c(C)o2)c1`, the cell viability was determined as 103%.

Consider `Cc1ccc(-c2nn(CC(=O)NCCc3c(C)n(C)c4ccccc34)c(=O)c3ccccc23)cc1S(=O)(=O)N1CCCCC1`, for which the cell viability came out at 104%.

For `CC(=O)c1ccc(NC(=O)CSc2nc3c(=O)[nH]cnc3n2C)cc1`, the cell viability came to 110%.

Regarding `NS(=O)(=O)c1ccc(NC(=O)CN2CCc3ccccc3C2)cc1`, the cell viability stood at 94.4%.

For the compound `CC(C)C(=O)NCC(=O)NCC(=O)O`, the cell viability was 98.8%.

`O=C(Cn1c(=O)cc(C(=O)N2CCCCC2)c2ccccc21)Nc1ccc2c(c1)OCCO2`: the cell viability stood at 103%.

As to `O=C(Cc1cccc(Cl)c1)c1c(O)cc(O)cc1O`, the cell viability came to 99.4%.

In the case of `COc1ccc(C2c3[nH]c4ccccc4c3CCN2C(=O)/C=C/c2ccccc2)cc1` (centres undefined), the cell viability worked out at 87.7%.

Take `COc1cc(OC)c(C(=O)/C=C/c2ccccc2)c(OC)c1`: the cell viability was 33%.

In the case of `COc1cc(C(=O)Nc2ccc3c(c2)ncn3C)cc(OC)c1OC`, the cell viability amounted to 19%.

`COc1ccc(C(=O)Nc2ccccc2C(=O)NC(Cc2c[nH]c3ccccc23)C(=O)O)cc1` (centres undefined): the cell viability came to 95.5%.

In the case of `CCOC(=O)C(Cc1c[nH]c2ccccc12)NS(=O)(=O)c1ccc(OC)c(-n2cnnn2)c1` (centres undefined), the cell viability came to 105%.

As to `NC(C/C=C/CC(N)C(=O)O)C(=O)O` (centres undefined), the cell viability amounted to 95.8%.

Regarding `CN(Cc1cnc2nc(N)nc(N)c2n1)c1ccc(C(=O)NC(CCC(=O)O)C(=O)O)cc1` (centres undefined), the cell viability is 102%.

Consider `Cc1nc2ccccc2c(C(=O)O)c1C(=O)O`, for which the cell viability was 104%.

As to `CO[C@H]1[C@@H](OC(C)=O)[C@H](C)[C@H](O)[C@H](C)C(O)[C@@H](C)/C=C/C=C(/C)C(=O)Nc2c(C=NN3CCN(C)CC3)c(O)c3c4c(cc(O)c3c2O)O[C@](C)(O/C=C/[C@@H]1OC)C4=O` (some centres undefined), the cell viability is 87.3%.

Consider `CCCNC(=O)c1cc(=O)n(CC(=O)Nc2ccc(C)c(F)c2)c2ccccc12`, for which the cell viability came out at 84.2%.

As to `CC(=O)N1N=C(c2c(-c3ccccc3)c3cc(Br)ccc3[nH]c2=O)CC1c1cccc([N+](=O)[O-])c1` (centres undefined), the cell viability was 83.2%.

For the compound `O=C(NCCCCCCNC(=O)c1ccc2c(c1)OCCOCCOCCO2)c1ccc2c(c1)OCCOCCOCCO2`, the cell viability is 96.3%.

Take `COc1ccc(C(=O)N2CCn3cccc3C2c2ccccc2)cc1OC` (centres undefined): the cell viability came out at 113%.

As to `CCCCc1c(O)c2cc(C(=O)OCC)ccc2[nH]c1=O`, the cell viability turned out to be 97.7%.

`O=c1oc2cc(O)ccc2cc1-c1ccc(Cl)cc1Cl`: the cell viability was found to be 108%.

As to `CCOc1ccccc1-c1nc(CSc2nc3c(=O)[nH]c(C)nc3n2C)c(C)o1`, the cell viability came to 101%.

For the compound `COc1cc(C(=O)Nc2cccnc2)cc(OC)c1OC`, the cell viability was 94.2%.

With `CCOc1cc2c(cc1OCC)C(c1ccc3c(c1)OCO3)NCC2` (centres undefined), the cell viability worked out at 98.1%.

Turning to `CCOC(=O)CNC(=O)c1ccc(Cl)c([N+](=O)[O-])c1`, the cell viability is 97.8%.

In the case of `O=C(NCCCCCCNC(=O)/C(=C\c1ccc2c(c1)OCO2)NC(=O)c1ccccc1)/C(=C\c1ccc2c(c1)OCO2)NC(=O)c1ccccc1`, the cell viability turned out to be 107%.

Turning to `CCOC(=O)C(Cc1c[nH]c2ccccc12)NC(=O)c1ccccc1C(F)(F)F` (centres undefined), the cell viability is 93.6%.

Consider `O=C(Cn1c(=O)cc(C(=O)N2CCCCC2)c2ccccc21)NCc1ccccc1Cl`, for which the cell viability amounted to 90%.

Regarding `Cc1[nH]c2ccccc2c1CCNC(=O)COc1c(F)c(F)cc(F)c1F`, the cell viability amounted to 87.4%.

`Cc1cccc(C)c1NC(=O)COc1cc(O)c2c(=O)cc(-c3ccccc3)oc2c1`: the cell viability was found to be 103%.

On to `C[C@@H]1C=CC[C@H]2[C@@H]1C(=O)[C@@H]1OC[C@H]2O1`, for which the cell viability was found to be 95.6%.

`COc1ccc(/C=C2\Oc3cc(OC(=O)c4ccc(OC)cc4)ccc3C2=O)cc1`: the cell viability turned out to be 93.9%.

For the compound `CCSCCN=Cc1c(O)c(O)c(C(C)C)c2cc(C)c(-c3c(C)cc4c(C(C)C)c(O)c(O)c(C=NCCSCC)c4c3O)c(O)c12`, the cell viability stood at 85.6%.

In the case of `COc1ccc(NC(=O)CSc2nc3ccccc3c(=O)[nH]2)cc1Cl`, the cell viability was determined as 104%.

As to `Cc1ccc2[nH]c(=O)cc(CSc3ncc(-c4ccccc4)n3C)c2c1`, the cell viability came to 84.7%.

For `O=C(O)CC(C(=O)O)n1c(O)c(C2=c3cc(Br)ccc3=NC2=O)sc1=S` (centres undefined), the cell viability was found to be 113%.

Consider `COc1cc(OC)cc([C@@H]2[C@@H](C(=O)C(C)(C)C)N3c4ccccc4C=C[C@@H]3C2(C#N)C#N)c1`, for which the cell viability came to 79.7%.

For `O=C1C(=O)N(CC(=O)N2CCc3ccccc3C2)c2ccccc21`, the cell viability was determined as 95.5%.

For `COc1ccc(-c2nc(NC(C)=O)c3c(=O)oc4ccccc4c3n2)cc1`, the cell viability came out at 97.6%.

For `COC(=O)CNC(=O)c1ccc(Cl)cc1Cl`, the cell viability amounted to 109%.

In the case of `CCOc1cc(C2C(C(=O)OC(C)CC)=C(C)NC3=C2C(=O)CC(c2ccc(Cl)cc2)C3)ccc1O` (centres undefined), the cell viability was found to be 99.9%.

Turning to `COC(=O)C(N)Cc1cnc[nH]1` (centres undefined), the cell viability turned out to be 98.8%.

Turning to `COc1cccc(CNC(=O)CSc2nc3ccccc3c(=O)[nH]2)c1OC`, the cell viability is 102%.

For the compound `CCc1[nH]nc2c1C(c1cc(OC)c(O)c(OC)c1)C(C#N)=C(N)O2` (centres undefined), the cell viability worked out at 107%.

On to `CCCNC(=O)c1cc(=O)n(CC(=O)Nc2ccccc2Cl)c2ccccc12`, for which the cell viability worked out at 98.4%.

With `COc1ccc(C=O)cc1C`, the cell viability is 96%.

Regarding `CC(=O)OC1CCC2(C)C(CCC3(C)C2C(=O)C=C2C4CC(C)(C(=O)Nc5ccccn5)CCC4(C)CCC23C)C1(C)C` (centres undefined), the cell viability came to 72.2%.

As for `COc1ccc(CC(C)NC(=O)c2ccc3c(c2)OCO3)cc1OC` (centres undefined), the cell viability worked out at 104%.

As to `Cc1oc(-c2ccccc2Cl)nc1CSc1nc2c(=O)[nH]cnc2n1C`, the cell viability was determined as 97.1%.

Turning to `COc1ccc(NC(=O)CN2CCC3(O)CCCCC3C2c2cc(OC)c(OC)c(OC)c2)cc1` (centres undefined), the cell viability came to 98.5%.

In the case of `Cc1oc(-c2ccc(OC(C)C)cc2)nc1CSc1nc2c(=O)[nH]cnc2n1C`, the cell viability stood at 104%.

Turning to `NC(Cc1ccccc1F)C(=O)O` (centres undefined), the cell viability was determined as 109%.

Turning to `O=C(c1ccncc1)c1cccc([N+](=O)[O-])c1`, the cell viability came to 92.4%.

In the case of `Cc1cc(NC(=O)c2ccc(C)c([N+](=O)[O-])c2)ccc1-c1cc2ccccc2oc1=O`, the cell viability stood at 91.8%.

With `Nc1nc(N)c2[nH]c(SCC(=O)O)nc2n1`, the cell viability was 102%.

Turning to `CCOC(=O)c1ccc2[nH]c(=O)c(Cc3ccccc3)c(O)c2c1`, the cell viability was 97.9%.

For `COc1ccc(C(C)=O)c(O)c1O`, the cell viability came out at 105%.

With `COc1cc(-c2cc(=O)c3cc(C)cc(C)c3o2)ccc1O`, the cell viability amounted to 85.9%.

Regarding `COc1ccc(C(=O)C2[C@@H]3C4COC(O4)C(=O)[C@@H]3[C@H]3C=Cc4ccccc4N23)cc1OC` (some centres undefined), the cell viability came to 90.7%.

Regarding `Cc1ccc2occc(=O)c2c1`, the cell viability is 100%.

Turning to `Cc1cc(=O)[nH]c2ccc(S(=O)(=O)N3CCN(c4ccccc4F)CC3)cc12`, the cell viability came out at 99.8%.

On to `CC1(C(=O)O)CCC2(C)CCC3(C)C(=CCC4C5(C)CCC(O)C(C)(C)C5CCC43C)C2C1` (centres undefined), for which the cell viability amounted to 101%.

Consider `COC(=O)c1cc(O)cc(O)c1`, for which the cell viability was 104%.

`COCCOC(=O)C1=C(N)OC2=C(C(=O)CC(C)(C)C2)C1c1cccnc1` (centres undefined): the cell viability was 94.1%.

Take `CCOC(=O)c1ccc(NC(=O)CSc2nc3c(=O)[nH]cnc3n2C)cc1`: the cell viability came out at 94.5%.

Consider `COc1cc(C=O)cc(OC)c1O`, for which the cell viability is 93.7%.

Consider `Cc1ccc(-n2c(SCc3ccc(Cl)cc3)nc3c(=O)[nH]cnc32)cc1`, for which the cell viability came to 112%.

`CC(=O)Nc1ccc(NC(=O)Cn2c(=O)cc(C(=O)N3CCCCC3)c3ccccc32)cc1`: the cell viability amounted to 105%.

As for `COc1ccc(C2OC[C@@H]3C(c4ccc(OC)c(OC)c4)OC[C@H]23)cc1OC` (some centres undefined), the cell viability stood at 101%.

In the case of `COC(=O)C1=CN(C(C)c2ccccc2)C=C(C(=O)OC)C1c1cc(OC)c(OC)c(OC)c1` (centres undefined), the cell viability came to 100%.
